In PMC5855093:
Results are given in words; binding and its absence hold for the method and conditions named. In cells and extracts the contact can be indirect. Binding calls can cover weak binding; strength is not graded here.

Chains of the proteins cited; added tags and fusions are not shown. Lines headed by an entry give the natural chain unless they say otherwise; changes in a name come on top.
UniProt Q6GQD1: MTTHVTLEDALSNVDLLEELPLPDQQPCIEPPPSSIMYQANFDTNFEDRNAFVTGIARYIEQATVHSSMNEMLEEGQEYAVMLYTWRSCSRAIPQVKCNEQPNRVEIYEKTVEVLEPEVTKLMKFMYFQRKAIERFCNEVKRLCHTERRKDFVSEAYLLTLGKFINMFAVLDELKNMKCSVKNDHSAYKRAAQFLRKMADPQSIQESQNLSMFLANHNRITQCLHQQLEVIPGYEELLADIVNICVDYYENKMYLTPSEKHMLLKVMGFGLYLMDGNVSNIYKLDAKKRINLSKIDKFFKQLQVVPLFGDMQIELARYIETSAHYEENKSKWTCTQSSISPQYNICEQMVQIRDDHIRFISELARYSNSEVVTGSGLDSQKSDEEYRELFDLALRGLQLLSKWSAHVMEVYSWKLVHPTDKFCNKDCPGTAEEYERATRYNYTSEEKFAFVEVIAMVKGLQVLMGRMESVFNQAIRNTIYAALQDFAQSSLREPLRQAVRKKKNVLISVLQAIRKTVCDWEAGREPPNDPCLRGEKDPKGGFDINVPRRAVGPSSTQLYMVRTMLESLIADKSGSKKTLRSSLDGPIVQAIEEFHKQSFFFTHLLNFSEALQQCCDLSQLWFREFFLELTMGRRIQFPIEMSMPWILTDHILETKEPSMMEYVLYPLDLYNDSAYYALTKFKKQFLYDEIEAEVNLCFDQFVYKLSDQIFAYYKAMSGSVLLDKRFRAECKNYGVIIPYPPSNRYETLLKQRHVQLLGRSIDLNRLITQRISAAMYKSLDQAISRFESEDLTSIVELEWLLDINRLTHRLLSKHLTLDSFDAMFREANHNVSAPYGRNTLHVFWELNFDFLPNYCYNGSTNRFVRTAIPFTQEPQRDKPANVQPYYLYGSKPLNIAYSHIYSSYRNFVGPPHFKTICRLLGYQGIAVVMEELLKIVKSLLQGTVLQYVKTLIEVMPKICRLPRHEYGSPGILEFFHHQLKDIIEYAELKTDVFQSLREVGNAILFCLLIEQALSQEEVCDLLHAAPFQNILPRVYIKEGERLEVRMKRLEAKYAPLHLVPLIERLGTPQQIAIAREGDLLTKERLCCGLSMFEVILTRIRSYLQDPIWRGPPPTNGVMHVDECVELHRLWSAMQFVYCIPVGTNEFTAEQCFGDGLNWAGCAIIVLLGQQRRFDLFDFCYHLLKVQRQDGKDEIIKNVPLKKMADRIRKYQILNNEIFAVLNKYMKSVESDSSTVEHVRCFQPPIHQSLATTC
UniProt P51115: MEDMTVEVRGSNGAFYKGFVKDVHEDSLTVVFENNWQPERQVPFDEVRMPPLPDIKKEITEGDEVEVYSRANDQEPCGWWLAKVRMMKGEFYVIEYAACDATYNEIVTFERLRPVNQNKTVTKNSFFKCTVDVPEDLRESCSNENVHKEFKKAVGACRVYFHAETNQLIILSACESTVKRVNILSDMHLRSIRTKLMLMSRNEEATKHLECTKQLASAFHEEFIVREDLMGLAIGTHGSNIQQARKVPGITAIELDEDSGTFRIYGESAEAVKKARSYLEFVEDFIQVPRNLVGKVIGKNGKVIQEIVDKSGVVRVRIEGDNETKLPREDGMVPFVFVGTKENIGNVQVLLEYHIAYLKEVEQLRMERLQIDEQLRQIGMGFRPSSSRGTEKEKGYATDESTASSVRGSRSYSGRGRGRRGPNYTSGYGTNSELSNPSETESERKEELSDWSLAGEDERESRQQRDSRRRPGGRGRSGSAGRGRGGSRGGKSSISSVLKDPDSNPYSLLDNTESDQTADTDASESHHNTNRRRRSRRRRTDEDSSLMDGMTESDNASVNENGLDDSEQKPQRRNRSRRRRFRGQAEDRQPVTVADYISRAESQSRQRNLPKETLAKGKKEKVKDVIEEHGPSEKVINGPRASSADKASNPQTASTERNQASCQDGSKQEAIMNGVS

Key:
[1] = biological target: CYFIP2 (endogenous, Xenopus retinal ganglion cell axons) (Xenopus laevis (endogenous in Xenopus retinal cultures)) (UniProt Q6GQD1); assay: proximity ligation; Duolink in situ PLA on fixed Xenopus retinal explant cultures, endogenous proteins; signal counted in the RGC axon shaft
[2] = biological target: CYFIP2 (endogenous, Xenopus retinal ganglion cell axons) (Xenopus laevis (endogenous in Xenopus retinal cultures)) (UniProt Q6GQD1); assay: proximity ligation; Duolink in situ PLA on fixed Xenopus retinal explant cultures, endogenous proteins; signal counted in the RGC growth cone (central and peripheral domains)

For “Xenopus RNA binding protein Fragile X mental retardation-related protein (xFXR) (from UniProt P51115)”, the binding [1] was “binds” and the binding [2] was “binds”.
